In assay [1] the target is SS-Cdc42-H (S. cerevisiae) (UniProt P19073). As to the kind of experiment: SDS-Page with Western blot.
The target in a further assay is T1, H-Bem1-F (S. cerevisiae) (UniProt P29366).
T1 sequence: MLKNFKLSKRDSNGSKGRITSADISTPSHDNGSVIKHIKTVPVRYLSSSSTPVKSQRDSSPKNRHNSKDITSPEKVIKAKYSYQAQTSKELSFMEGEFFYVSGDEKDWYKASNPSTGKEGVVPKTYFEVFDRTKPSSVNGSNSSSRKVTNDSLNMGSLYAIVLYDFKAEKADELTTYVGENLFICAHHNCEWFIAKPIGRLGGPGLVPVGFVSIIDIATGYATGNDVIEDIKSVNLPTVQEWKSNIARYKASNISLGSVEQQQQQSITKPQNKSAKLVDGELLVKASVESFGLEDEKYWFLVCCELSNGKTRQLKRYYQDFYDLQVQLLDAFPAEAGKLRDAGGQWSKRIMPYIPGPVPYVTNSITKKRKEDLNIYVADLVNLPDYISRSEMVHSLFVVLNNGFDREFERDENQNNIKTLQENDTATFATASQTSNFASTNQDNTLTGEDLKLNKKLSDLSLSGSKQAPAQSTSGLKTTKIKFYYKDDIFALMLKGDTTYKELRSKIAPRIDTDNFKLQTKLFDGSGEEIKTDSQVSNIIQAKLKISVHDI
In words: pull-down.

Chains of the proteins cited; added tags and fusions are not shown.
UniProt P19073: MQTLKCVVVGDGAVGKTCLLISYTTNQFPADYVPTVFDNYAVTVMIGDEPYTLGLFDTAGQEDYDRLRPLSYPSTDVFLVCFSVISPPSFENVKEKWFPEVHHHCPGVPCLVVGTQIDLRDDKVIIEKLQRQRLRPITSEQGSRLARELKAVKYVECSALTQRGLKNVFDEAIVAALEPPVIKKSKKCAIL

The target in assay [2] is H-SS-Cdc42-F (S. cerevisiae) (UniProt P19073). As to the kind of experiment: SDS-Page with Western blot. For orientation: In western blotting, separated proteins are transferred to a membrane and probed.

These are yes or no findings as the source states them, for the method shown.

Regarding SS-Cdc42-H (from UniProt P19073 1-191), the binding entry in assay [1] is “no binding”.

Take Ovalbumin (from UniProt P01012 1-386): in the assay with H-Bem1-F (S. cerevisiae), the binding result was “no binding”.

Regarding “H-SS-Cdc42-F (from UniProt P19073 1-191)”, in assay [2], the binding result was “no binding”.

The values above are taken from article doi:10.1101/2023.04.24.538075 (bioRxiv, 2023).
